Data taken from publication PMC8113354.
The exact form of at least one protein or probe is not confirmed. Negatives hold for the conditions tested.

Protein sequences, listed by entry. Tags and fused reporters are not part of them.
UniProt P08515, whole entry: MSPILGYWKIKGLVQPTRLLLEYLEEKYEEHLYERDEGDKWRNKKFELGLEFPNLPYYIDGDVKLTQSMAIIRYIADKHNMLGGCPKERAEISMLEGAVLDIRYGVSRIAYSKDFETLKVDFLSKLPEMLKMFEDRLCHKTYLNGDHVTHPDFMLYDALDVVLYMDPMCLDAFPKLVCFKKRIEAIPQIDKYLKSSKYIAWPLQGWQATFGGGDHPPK

Biological target: GST (UniProt P08515)
Test: EMSA
Conditions: 2 uM RNA, 5 uM protein; EMSA: 10 mM Tris-HCl pH 7.5, 20 mM KCl, 1 mM MgCl2, 1 mM DTT, room temp 5 min, 2% agarose 0.5x TBE; recombinant protein; protein details: GST

CAAGACAAGACAAGACAAGACAAGACAAGA [(CAAGA)6]
binding result: no binding
